# The whole screen tested about 390,000 compounds, of which about 910 (0.23%) were called active. The inconclusive results got no clear call from the source; some entries with a clear call stand among them for comparison. The call rests on the fitted dose curve; in most records, active means well fitted inhibition curve with a large enough effect; inconclusive means small, poorly fitted or top-dose-only effect; inactive means no such curve, though single readings can be large or run the other way. A potency beside an inconclusive call is a rough fit, not a confirmed value.
# Amino acid sequences for entries named in this document (tags omitted). A change or cut given only in a name is not applied to a line headed by its entry.
# UniProt O94782: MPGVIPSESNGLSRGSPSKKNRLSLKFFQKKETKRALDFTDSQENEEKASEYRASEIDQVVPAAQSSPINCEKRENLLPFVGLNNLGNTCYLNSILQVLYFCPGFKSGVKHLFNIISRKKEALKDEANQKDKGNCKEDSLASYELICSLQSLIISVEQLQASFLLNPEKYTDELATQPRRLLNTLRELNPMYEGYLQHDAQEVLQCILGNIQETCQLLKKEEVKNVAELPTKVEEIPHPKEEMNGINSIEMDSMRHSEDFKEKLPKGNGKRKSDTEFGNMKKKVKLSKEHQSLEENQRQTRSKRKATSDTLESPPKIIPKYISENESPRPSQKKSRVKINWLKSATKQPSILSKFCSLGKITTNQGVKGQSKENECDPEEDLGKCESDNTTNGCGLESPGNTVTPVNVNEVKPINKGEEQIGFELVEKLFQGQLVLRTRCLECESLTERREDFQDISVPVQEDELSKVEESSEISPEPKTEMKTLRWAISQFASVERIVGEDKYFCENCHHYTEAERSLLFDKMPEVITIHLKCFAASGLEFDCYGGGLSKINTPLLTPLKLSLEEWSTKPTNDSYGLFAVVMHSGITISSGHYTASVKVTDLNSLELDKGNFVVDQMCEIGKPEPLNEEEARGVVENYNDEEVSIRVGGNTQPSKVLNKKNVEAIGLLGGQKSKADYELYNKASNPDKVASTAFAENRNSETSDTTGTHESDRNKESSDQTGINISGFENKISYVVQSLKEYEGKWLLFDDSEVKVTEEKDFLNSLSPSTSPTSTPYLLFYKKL
# Molecular target: Ubiquitin carboxyl-terminal hydrolase 1 (Homo sapiens) (UniProt O94782)
# Assay: Inhibitors of USP1/UAF1: Primary Screen; further: nearly all actives have a fitted effect of over 60% in size
# Conditions: recombinant USP1/UAF1, Ub-Rhodamine cleavage fluorescence; series mostly up to 57.1 µM
# Description: Deubiquitinating enzymes (DUBs) are a class of enzymes that can cleave isopeptide bond formed between the C-terminal carboxylate of ubiquitin and a lysine side-chain amino group on the target protein. Among them, ubiquitin specific proteases (USPs) constitute the largest DUB family. Human USPs are emerging as promising targets for pharmacological intervention because of their connection to a number of human diseases, including prostate, colon and breast cancer (1, 2), pediatric acute lymphoblastic leukemia (3), and familial cylindromatosis (4). The advantage of inhibiting USPs lies in the potential specificity of therapeutic intervention that can lead to better efficacy and reduce nonspecific side effects. In a collaboration between the University of Delaware and the NIH Chemical Genomics Center, a high-throughput screen assay was developed to screen for USP1/UAF1 inhibitors. This miniaturized assay has a fluorescent read-out and is used to screen the NIH Molecular Libraries Small Molecule Repository (MLSMR) in order to identify a small molecule that inhibits USP1. NIH Chemical Genomics Center [NCGC] NIH Molecular Libraries Probe Centers Network [MLPCN] MLPCN Grant: DA030552 Assay Submitter (PI): Zhihao Zhuang, University of Delaware 1. Priolo, C., et al. (2006) The isopeptidase USP2a protects human prostate cancer from apoptosis. Cancer Res 66, 8625-8632 2. Popov, N., et al. (2007) The ubiquitin-specific protease USP28 is required for MYC stability. Nat Cell Biol 9, 765-774 3. De Pitta, C., et al. (2005) A leukemia-enriched cDNA microarray platform identifies new transcripts with relevance to the biology of pediatric acute lymphoblastic leukemia. Haematologica 90, 890-898 4. Kovalenko, A., et al. (2003) The tumour suppressor CYLD negatively regulates NF-kappaB signalling by deubiquitination. Nature 424, 801-805
# 3 microliters of reagents (buffer in columns 3 and 4 as negative control and 1nM USP1/UAF1 complex in columns 1, 2, and 5-48) are dispensed into Greiner black solid bottom 1536-well assay plates. Compounds are then transferred via Kalypsys pin tool equipped with 1536-pin array (10nl slotted pins, V&P Scientific, San Diego, CA). Following an incubation step of 15 min at room temperature, 1ul of Ub-Rho substrate (150nM final concentration) is added to initiate the reaction. The plates are immediately centrifuged at 1000 rpm for 15 seconds, and subsequently transferred to a ViewLux high-throughput CCD imager (PerkinElmer) wherein kinetic measurements of fluorescence are acquired using 480 nm excitation/540 nm emission filter set (6 reads every 60 seconds, see Table 1). All reagents are diluted in an assay buffer consisting of 50mM HEPES (pH 7.8), 0.5mM EDTA, 0.1 mg/ml BSA, 1mM TCEP, and 0.01% Tween-20.
# Potency means the concentration at half of the fitted maximal effect.
row,SMILES,Potency
1,COc1ccccc1N1CCN(S(=O)(=O)c2ccc3c(c2)oc(=O)n3C)CC1,"inconclusive: 56.2 µM [inhibitor, partial curve, poor fit]"
2,CCCCn1c(NS(=O)(=O)c2ccccc2)c(C(=O)OCC)c2nc3ccccc3nc21,active: 22.4 µM
3,CC(=O)c1ccc(N2CCN(S(=O)(=O)c3cc(-c4onc(C)c4C)ccc3C)CC2)cc1,"inconclusive: 0.708 µM [inhibitor, full curve]"
4,O=C(N/N=C/c1c(O)n(Cc2ccc(F)cc2)c(=O)[nH]c1=O)c1ccccc1,"inconclusive: 3.16 µM [inhibitor, full curve, poor fit]"
5,COC1C(OC(=O)c2ccc(C)[nH]2)C(O)C(Oc2ccc3c(O)c(NC(=O)c4ccc(O)c(CC=C(C)C)c4)c(=O)oc3c2Cl)OC1(C)C (stereo not given),inactive
6,CCOP(=S)(OCC)Oc1cc(C)nc(C(C)C)n1,inactive
7,Cc1cc(OCC(=O)NC(Cc2ccc(Cl)cc2)C(=O)O)c2c3c(c(=O)oc2c1)CCC3 (stereo not given),"inconclusive: 39.8 µM [inhibitor, partial curve]"
8,CCN(CC)c1ccc(N=Cc2c(O)n(-c3ccccc3C)c(=O)[nH]c2=O)cc1,"inconclusive: 50.1 µM [inhibitor, partial curve, poor fit]"
9,COC(=O)C1=C(c2cc3ccccc3s2)C[C@@H]2CC[C@H]1N2C(=O)NCc1ccco1,"inconclusive: 39.8 µM [inhibitor, partial curve, poor fit]"
10,CCN(CC)C(=O)Cn1cc(/C=C2\C(=O)NC(=O)N(c3ccccc3F)C2=O)c2ccccc21,inactive
11,Cc1ccc(F)cc1NC(=O)c1ccc(Cn2nc(N3CCN(c4ccccc4)CC3)ccc2=O)o1,"inconclusive: 6.31 µM [inhibitor, full curve, poor fit]"
12,Nc1ccc(Cc2ccc(N)cc2)cc1,inactive
13,CN1CCN(CCOC2c3ccccc3CSc3ccc(Cl)cc32)CC1 (stereo not given),inactive
14,C=Cn1ccnc1P(=S)(c1c(C)nn(-c2ccccc2)c1C)c1nccn1C=C,"inconclusive: 31.6 µM [inhibitor, single point]"
15,CN1C(=O)C(=Cc2ccccc2OCCOc2ccc([N+](=O)[O-])cc2)C(=O)N(C)C1=O,"inconclusive: 7.08 µM [inhibitor, full curve, poor fit]"
16,CSc1nc(Cl)c(Br)c(N2CC2)n1,"inconclusive: 39.8 µM [inhibitor, partial curve, poor fit]"
17,Cc1cccc(-n2c(/C=C/c3cn(C)c4ccccc34)nc3ccccc3c2=O)c1,"inconclusive: 50.1 µM [inhibitor, partial curve]"
18,C[N+](C)(C)CCOP(=O)([O-])OC[C@H](O)CO,inactive
19,O=C(CN1CCCCC1)NCC(=O)Nc1ccc(Br)cc1C(=O)c1ccccc1,inactive
20,O=c1c(O)c(-c2ccc(O)c(O)c2)oc2cc(O)cc(O)c12,"inconclusive: 112 µM [inhibitor, partial curve, poor fit]"

# Of the compounds above, 2 have a furan ring, fused or not:
row,SMILES,Potency
9,COC(=O)C1=C(c2cc3ccccc3s2)C[C@@H]2CC[C@H]1N2C(=O)NCc1ccco1,"inconclusive: 39.8 µM [inhibitor, partial curve, poor fit]"
11,Cc1ccc(F)cc1NC(=O)c1ccc(Cn2nc(N3CCN(c4ccccc4)CC3)ccc2=O)o1,"inconclusive: 6.31 µM [inhibitor, full curve, poor fit]"

# Remaining list, next part

row,SMILES,Potency
1,COC(=O)C1=C(c2ccc(OC(F)(F)F)cc2)C[C@@H]2CC[C@H]1N2C(=O)NCCOc1ccc(OC)cc1,"inconclusive: 44.7 µM [inhibitor, partial curve, poor fit]"
2,Nc1c(C(=O)Nc2cccc(F)c2)sc2nc(-c3cccs3)ccc12,"inconclusive: 12.6 µM [inhibitor, partial curve]"
3,COC(=O)C1=C(c2cccc(OCc3ccccc3)c2)C[C@@H]2CC[C@H]1N2C(=O)NCc1ccc(OC)c(OC)c1,"inconclusive: 0.282 µM [inhibitor, full curve, poor fit]"
4,CCC1(C)CN(S(=O)(=O)OCC(Cl)(Cl)Cl)C(=O)N1 (stereo not given),"inconclusive: 7.08 µM [inhibitor, partial curve]"
5,Cc1ccc(/C=C2\C(=O)NC(=S)N(c3cccc(F)c3)C2=O)o1,"inconclusive: 39.8 µM [inhibitor, partial curve]"
6,CC1=CC2OC3CC4OC(=O)C=CC=CC(=O)OCCC(C)C(O)C(=O)OCC2(CC1)C4(C)C31CO1 (stereo not given),inactive
7,COc1ccc(NP(=O)(Oc2cccc(C)c2)Oc2cccc(C)c2)cc1OC,inactive
8,CN1C(=O)C(=Cc2coc3ccccc3c2=O)C(=O)N(C)C1=O,inactive
9,CN1C2CC(OC(=O)C(CO)c3ccccc3)CC1C1OC12 (stereo not given),"inconclusive: 100 µM [inhibitor, partial curve, poor fit]"
10,Cc1cccc(NC(N)=S)c1,"inconclusive: 0.0891 µM [inhibitor, full curve, poor fit]"
11,CCC(CO)(C(=O)OC1C[N+]2(C)CCC1CC2)c1ccccc1 (stereo not given),"inconclusive: 11.2 µM [inhibitor, partial curve, poor fit]"
12,CN1CCc2cc3c(c4c2C1Cc1ccccc1-4)OCO3 (stereo not given),"inconclusive: 31.6 µM [inhibitor, partial curve]"
13,COC(=O)C1=C(c2cccc(C#N)c2)C[C@@H]2CC[C@H]1N2C(=O)N1CCCCC1,"inconclusive: 3.98 µM [inhibitor, full curve, poor fit]"
14,CN(C)C(=O)Oc1ccc(Cl)c2cccnc12,"inconclusive: 8.91 µM [inhibitor, partial curve, poor fit]"
15,C[C@]12CC[C@@H]3c4ccc(O)c(O)c4CC[C@H]3[C@@H]1CC[C@@H]2O,"inconclusive: 112 µM [inhibitor, partial curve, poor fit]"
16,COc1cc(C(=O)OCc2cc(=O)c(O)co2)ccc1OC(F)F,"inconclusive: 6.31 µM [inhibitor, single point]"
17,COC(=O)C1=C(c2ccc(Cl)c(C(F)(F)F)c2)C[C@@H]2CC[C@H]1N2C(=O)N1CCCC1,inactive
18,COC(=O)Cn1cc(C=C2C(=O)N(C)C(=O)N(C)C2=O)c2ccccc21,"inconclusive: 35.5 µM [inhibitor, partial curve]"
19,CCS(=O)(=O)N1N=C(c2cccc(NS(C)(=O)=O)c2)CC1c1ccccc1 (stereo not given),"inconclusive: 50.1 µM [inhibitor, partial curve, poor fit]"
20,CC[n+]1c(-c2ccccc2)c2cc(N)ccc2c2ccc(N)cc21,"inconclusive: 14.1 µM [inhibitor, partial curve]"

# Source: PubChem BioAssay AID743255 (National Center for Advancing Translational Sciences (NCATS), 2014)
